Data taken from patent publication US12661385B2, “Modulation of mTORCI activity and autophagy via CIB2-RHEB interaction” (University of Maryland, Baltimore, priority 2018, dated 2026).
At least one structure is not confirmed: it was looked up by name or label, or the drawing left a doubt.

Tested on: RPE-J cells
Assay: LC3-II induction / LC3 flux immunoblots in transfected RPE-J cells
Type: cell-based, rat
Settings: 100 nM rapamycin for 24 hrs
Description: FIG. 13. Loss of CIB2, specifically in the RPE, leads to LC3 flux deficits, while CIB2 overexpression, in vitro, restores LC3 flux._a-d, RPE whole mounts treated with DMSO or 50 μM bafilomycin A1 (Baf-A1) overnight show reduced levels of LC3-II, quantified in panels b and d, in Cib2 deficient mice as compared to WT controls, indicating autophagy deficits. Ratio for WT or RPE-Cre+; Cib2^+/+ was set to 1. e. Representative immunoblots for LC3-II induction in transiently transfected (GFP or CIB2-IRES-GFP) RPE-J cells treated with DMSO, 50 μM bafilomycin-A1 (Baf-A1), or 100 nM rapamycin (Rapa) for 24 hrs. f. Quantification of LC3 flux (ratio of LC3-II/actin in Baf-A1 to DMSO treated samples) or LC3B-II/actin ratio up on rapamycin treatment for immunoblots shown in (e). […]
Complementary to the findings of Cib2 mutant mice, over-expressing CIB2 in RPE-J cells increased LAMP-1 and ATG5-ATG12 complex proteins levels (FIG. 12c-d). […] To test this idea, we assessed LC3-II flux. LC3-I is a cytosolic protein which when lipidated with a phosphatidylethanolamine adduct (LC3-II form) localizes to the growing auto/phagosome membrane, and thus can be used as a reliable readout for the dynamic autophagic process (Valapala et al., Autophagy 10, 480-496 (2014); Kim et al., Noncanonical Autophagy Promotes the Visual Cycle. Cell 154, 365-376 (2013); Klionsky et al., Autophagy 12, 1-222 (2016)). […]

In the case of `CO[C@H]1C[C@@H]2CC[C@@H](C)[C@@](O)(O2)C(=O)C(=O)N2CCCC[C@H]2C(=O)O[C@H]([C@H](C)C[C@@H]2CC[C@@H](O)[C@H](OC)C2)CC(=O)[C@H](C)/C=C(\C)[C@@H](O)[C@@H](OC)C(=O)[C@H](C)C[C@H](C)/C=C/C=C/C=C/1C` [rapamycin, reference compound], the LC3-II levels is reported as “elevated LC3-II levels”.
